Test results reported in publication doi:10.1101/2020.12.02.409078.

By UniProt entry, the sequences of proteins in these tests, tags left out.
UniProt O35343: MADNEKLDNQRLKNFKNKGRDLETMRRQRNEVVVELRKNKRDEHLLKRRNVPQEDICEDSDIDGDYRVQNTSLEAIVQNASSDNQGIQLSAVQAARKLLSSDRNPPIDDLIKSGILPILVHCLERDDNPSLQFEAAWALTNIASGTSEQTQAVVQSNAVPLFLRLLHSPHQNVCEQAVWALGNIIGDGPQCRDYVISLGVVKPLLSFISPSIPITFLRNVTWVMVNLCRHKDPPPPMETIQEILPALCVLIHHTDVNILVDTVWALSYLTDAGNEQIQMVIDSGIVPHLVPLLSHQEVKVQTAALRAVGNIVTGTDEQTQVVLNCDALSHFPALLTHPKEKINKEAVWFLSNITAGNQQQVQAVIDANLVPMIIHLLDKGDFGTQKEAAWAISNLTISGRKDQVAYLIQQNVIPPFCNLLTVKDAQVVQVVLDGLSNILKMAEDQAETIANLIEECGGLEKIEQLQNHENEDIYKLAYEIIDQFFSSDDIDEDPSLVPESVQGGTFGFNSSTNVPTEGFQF
UniProt Q62433: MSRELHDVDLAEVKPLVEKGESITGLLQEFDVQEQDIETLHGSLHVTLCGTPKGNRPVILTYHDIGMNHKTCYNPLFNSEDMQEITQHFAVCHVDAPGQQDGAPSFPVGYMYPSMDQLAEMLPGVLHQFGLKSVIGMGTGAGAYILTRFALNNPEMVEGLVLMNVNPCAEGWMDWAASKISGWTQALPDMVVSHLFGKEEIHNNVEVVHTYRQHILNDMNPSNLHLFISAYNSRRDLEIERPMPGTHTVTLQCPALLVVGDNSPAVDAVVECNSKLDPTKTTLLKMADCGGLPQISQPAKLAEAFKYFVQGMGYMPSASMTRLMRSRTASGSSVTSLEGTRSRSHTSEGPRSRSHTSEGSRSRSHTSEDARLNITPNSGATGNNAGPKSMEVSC
UniProt Q02248: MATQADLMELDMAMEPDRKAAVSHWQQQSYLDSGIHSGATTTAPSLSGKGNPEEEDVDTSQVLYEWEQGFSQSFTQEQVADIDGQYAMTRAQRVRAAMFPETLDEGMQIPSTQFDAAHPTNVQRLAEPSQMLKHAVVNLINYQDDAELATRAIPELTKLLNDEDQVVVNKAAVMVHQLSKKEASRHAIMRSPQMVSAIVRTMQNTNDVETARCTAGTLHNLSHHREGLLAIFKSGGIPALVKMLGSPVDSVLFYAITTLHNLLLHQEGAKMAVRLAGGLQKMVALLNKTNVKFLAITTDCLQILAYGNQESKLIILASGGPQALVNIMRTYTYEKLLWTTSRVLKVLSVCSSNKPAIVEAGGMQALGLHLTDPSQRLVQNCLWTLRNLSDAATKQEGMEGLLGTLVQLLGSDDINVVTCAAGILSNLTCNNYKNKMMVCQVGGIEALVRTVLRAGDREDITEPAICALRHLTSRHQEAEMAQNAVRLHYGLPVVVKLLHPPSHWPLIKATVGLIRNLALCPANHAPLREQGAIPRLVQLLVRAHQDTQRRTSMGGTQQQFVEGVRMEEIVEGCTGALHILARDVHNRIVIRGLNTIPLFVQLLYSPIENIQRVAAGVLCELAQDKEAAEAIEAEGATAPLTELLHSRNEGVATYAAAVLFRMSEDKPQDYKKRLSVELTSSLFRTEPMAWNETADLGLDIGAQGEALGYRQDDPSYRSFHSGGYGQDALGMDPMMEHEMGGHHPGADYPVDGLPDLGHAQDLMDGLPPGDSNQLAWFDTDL
UniProt Q63844: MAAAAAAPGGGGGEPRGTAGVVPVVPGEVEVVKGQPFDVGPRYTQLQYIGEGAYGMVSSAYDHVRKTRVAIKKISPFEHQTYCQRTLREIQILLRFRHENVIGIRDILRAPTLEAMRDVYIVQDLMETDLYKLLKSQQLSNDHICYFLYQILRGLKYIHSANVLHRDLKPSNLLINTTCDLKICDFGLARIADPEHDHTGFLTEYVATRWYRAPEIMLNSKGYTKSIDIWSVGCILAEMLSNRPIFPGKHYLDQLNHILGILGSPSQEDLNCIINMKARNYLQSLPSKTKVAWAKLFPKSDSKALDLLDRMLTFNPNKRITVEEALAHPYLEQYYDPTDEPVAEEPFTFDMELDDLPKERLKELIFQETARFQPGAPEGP
UniProt O35344: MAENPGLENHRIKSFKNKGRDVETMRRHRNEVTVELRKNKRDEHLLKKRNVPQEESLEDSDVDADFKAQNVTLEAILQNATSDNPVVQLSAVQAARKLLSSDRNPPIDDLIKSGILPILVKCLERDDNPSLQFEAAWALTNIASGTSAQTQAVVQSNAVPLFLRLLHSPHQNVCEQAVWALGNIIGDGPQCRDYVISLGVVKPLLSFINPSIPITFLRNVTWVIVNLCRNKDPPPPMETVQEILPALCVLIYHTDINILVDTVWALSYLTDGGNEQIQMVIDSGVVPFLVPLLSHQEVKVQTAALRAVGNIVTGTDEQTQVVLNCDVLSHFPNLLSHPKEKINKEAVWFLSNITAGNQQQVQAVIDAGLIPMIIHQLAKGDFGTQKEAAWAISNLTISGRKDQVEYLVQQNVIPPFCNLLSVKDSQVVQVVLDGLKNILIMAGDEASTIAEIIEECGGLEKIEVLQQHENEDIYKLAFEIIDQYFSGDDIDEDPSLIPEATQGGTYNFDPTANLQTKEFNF
UniProt P63101: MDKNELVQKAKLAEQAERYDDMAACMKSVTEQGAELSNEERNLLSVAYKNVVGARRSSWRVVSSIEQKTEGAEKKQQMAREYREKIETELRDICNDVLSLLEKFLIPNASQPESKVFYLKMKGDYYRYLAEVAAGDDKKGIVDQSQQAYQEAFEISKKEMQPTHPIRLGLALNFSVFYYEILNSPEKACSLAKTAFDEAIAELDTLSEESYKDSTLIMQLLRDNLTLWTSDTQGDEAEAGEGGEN

target: importin-β1 (mouse (endogenous in forebrain synaptosomes)) (UniProt P70168); assay: affinity purification with mass spectrometry

| Molecule | binding |
| --- | --- |
| CDK5 (from UniProt P49615 1-292) | binds |
| Imp-α4 (from UniProt O35343 1-521) | binds |
| Imp-α6 (from UniProt O35345 1-536) | binds |
| N-myc downstream regulated gene1 (NDRG1) (from UniProt Q62433 1-394) | binds |
| β-catenin (from UniProt Q02248 1-781) | binds |
| Adducin-1 (protein, UniProt Q9QYC0 1-735) MNGDTRAAVVTSPPPTTAPHKERYFDRVDENNPEYLRERNMAPDLRQDFNMMEQKKRVSMILQSPAFCEELESMIQEQFKKGKNPTGLLALQQIADFMTASVPNVYPAAPQGGMAALNMSLGMVTPVNDLRGSDSIAYDKGEKLLRCKLAAFYRLADLFGWSQLIYNHITTRVNSEQEHFLIVPFGLLYSEVTASSLVKVNLQGDIVDRGSTNLGVNQAGFTLHSAVYAARPDAKCIVHIHTPAGAAVSAMKCGLLPISPEALSLGDVAYHDYHGILVDEEEKILIQKNLGPKSKVLILRNHGLVSVGESVEEAFYYIHNLVVACEIQVRTLASAGGPDNLVLLDPGKYKAKSRSPGTPAGEGSGSPPKWQIGEQEFEALMRMLDNLGYRTGYPYRYPALRERSKKYSDVEVPASVTGHSFASDGDSGTCSPLRHSFQKQQREKTRWLHSGRGDDASEEGQNGSSPKSKTKWTKEDGHRTSTSAVPNLFVPLNTNPKEVQEMRNKIREQNLQDIKTAGPQSQVLCGVMMDRSLVQGELVTASKAIIEKEYQPHVIVSTTGPNPFNTLTDRELEEYRREVERKQKGSEENLDETREQKEKSPPDQSAVPNTPPSTPVKLEEDLPQEPTSRDDSDATTFKPTPPDLSPDEPSEALAFPAVEEEAHASPDPTQPPAEADPEPASAPTPGAEEVASPATEEGSPMDPGSDGSPGKSPSKKKKKFRTPSFLKKSKKKSDS | binds |

Continued, values first:

| binding | Molecule |
| --- | --- |
| binds | ERK1 (from UniProt Q63844 1-380) |
| binds | HNRP K (from UniProt P61979 1-463) |
| binds | Imp-α3 (from UniProt O35344 1-521) |
| binds | Ywhaz (from UniProt P63101 1-245) |
| binds | AIDA (protein, UniProt Q8BIZ1 1-1259) MGKDQELLEAARTGNVALVEKLLSGRKGGILGGGSGPLPLSNLLSIWRGPNVNCTDSSGYTALHHAALNGHKDIVLKLLQYEASTNVADNKGYFPIHLAAWKGDVEIVKILIHHGPSHSRVNEQNNENETALHCAAQYGHSEVVAVLLEELTDPTIRNSKLETPLDLAALYGRLRVVKMIISAHPNLMSCNTRKHTPLHLAARNGHKAVVQVLLEAGMDVSCQTEKGSALHEAALFGKVDVVRVLLETGIDANIKDSLGRTVLDILKEHPSQKSLQIATLLQDYLEGAGRSAAVLEEHAQEDTAQETHLSSPAESPQKTKSETVTGELSKLLDEIKLCQEKDYSFEDLCHTISDHYLDNLSKISEEELGKNGSQSVRTSSTINLSPGEVEDEEEDPNSCGPTGLWEALTPCNGCRNLGFPMLAQESYPKKRNFPMEMEPSASLDTFPSENENFLCELVDTAVTKKPCSLEIARAPSPRTDNASEVAITAPGTSHHRNSSTGPTPDCSPPSPDTALKNIVKVIRPQPKQRTSIVSSLDFQRMNHNQEYFEISTSTGCTSFTSSPAASPPTSSVETTEVKNEGAEHADDLSQQEDDEPPKEYDAGQFAGLLHGSSPACESPENPFHLYGKRNTCEDGPDEASLANSPLPFKQTPIENNPEPSVKKVKPKVVSRTIFHKRNHQLENHTIVGTRMSRSGSRNGDQWGVNPGGFVERACTLGRIRSLPKALIDMHLSKNVSKSDSDLIAYPSKDKARVNWSKSSTAERSSKDNSERTPSFTSEWEEIDKIMNSIDVGINSELEGMNGETTRPRCPVQTVGQWLESIGLPQYENHLMANGFDSVQFMGSNVMEDQDLLEIGILNSGHRQRILQAIQLLPKMRPIGHDGYHPTSVAEWLDSIELGDYTKAFLINGYTSMDLLKKIWELELINVLKISLIGHRKRILASLGDRLHDDPPQKPPRSITLREPSGNHTPPQLSPSLSQSTYTTGGSLDVPHIIMQGDARRRRNENYFDDIPRSKLERQMAQTGDWGEPSITLRPPNEATASTPVQYWQHHPEKLIFQSCDYKAFYLGSMLIKELRGTESTQDACAKMRANCRKSTEQMKKVPTIILSVSYKGVKFIDAANKNIIAEHEIRNISCAAQDPEDLSTFAYITKDLKSNHHYCHVFTAFDVNLAYEIILTLGQAFEVAYQLALQARKGGHSSTLPESFENKPSKPIPKPRVSIRKSVQIDPSEQKTLANLPWIVEPGQEAKRGINTKYETTIF |
| binds | CASK (protein, UniProt O70589 1-926) MADDDVLFEDVYELCEVIGKGPFSVVRRCINRETGQQFAVKIVDVAKFTSSPGLSTEDLKREASICHMLKHPHIVELLETYSSDGMLYMVFEFMDGADLCFEIVKRADAGFVYSEAVASHYMRQILEALRYCHDNNIIHRDVKPHCVLLASKENSAPVKLGGFGVAIQLGESGLVAGGRVGTPHFMAPEVVKREPYGKPVDVWGCGVILFILLSGCLPFYGTKERLFEGIIKGKYKMNPRQWSHISESAKDLVRRMLMLDPAERITVYEALNHPWLKERDRYAYKIHLPETVEQLRKFNARRKLKGAVLAAVSSHKFNSFYGDPPEELPDFSEDPTSSGLLAAERAVSQVLDSLEEIHALTDCSEKDLDFLHSVFQDQHLHTLLDLYDKINTKSSPQIRNPPSDAVQRAKEVLEEISCYPENNDAKELKRILTQPHFMALLQTHDVVAHEVYSDEALRVTPPPTSPYLNGDSPESANGDMDMENVTRVRLVQFQKNTDEPMGITLKMNELNHCIVARIMHGGMIHRQGTLHVGDEIREINGISVANQTVEQLQKMLREMRGSITFKIVPSYRTQSSSCERDSPSTSRQSPANGHSSTNNSVSDLPSTTQPKGRQIYVRAQFEYDPAKDDLIPCKEAGIRFRVGDIIQIISKDDHNWWQGKLENSKNGTAGLIPSPELQEWRVACIAMEKTKQEQQASCTWFGKKKKQYKDKYLAKHNAVFDQLDLVTYEEVVKLPAFKRKTLVLLGAHGVGRRHIKNTLITKHPDRFAYPIPHTTRPPKKDEENGKNYYFVSHDQMMQDISNNEYLEYGSHEDAMYGTKLETIRKIHEQGLIAILDVEPQALKVLRTAEFAPFVVFIAAPTITPGLNEDESLQRLQKESDVLQRTYAHYFDLTIINNEIDETIRHLEEAVELVCTAPQWVPVSWVY |

These are yes or no findings as the source states them, for the method shown. In cells and extracts the contact can be indirect. These calls come from enrichment with a bait or labelling near it, and not all partners need be listed.
